From the supplement of paper PMC8728848
The other results are listed elsewhere or left out.

Key:
Test in all cases: glycan array binding signal (z-score within array); higher = stronger binding
Conditions in all cases: glycan notation: IUPAC condensed, linker removed
[1] = target: Gal(b1-4)GlcNAc(b1-2)Man(a1-6)[Man(a1-3)]Man(b1-4)GlcNAc(b1-4)GlcNAc
Procedure, shortened: (§1)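 Glycan array binding is given as a within-array Z-score, which can be read as non-binding when negative. The arrays, 3228 of them, came from the Consortium for Functional Glycomics database and were retained only where the protein sequence was available. Z-scores were averaged across arrays of the same protein sequence at different concentrations or buffers and across linkers.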

[2] = target: Gal(b1-4)GlcNAc(b1-2)[Gal(b1-4)GlcNAc(b1-4)]Man(a1-3)[Gal(b1-4)GlcNAc(b1-2)Man(a1-6)]Man(b1-4)GlcNAc(b1-4)GlcNAc
Procedure, shortened: as §1

[3] = target: Gal(b1-4)GlcNAc(b1-2)[Gal(b1-4)GlcNAc(b1-4)]Man(a1-3)[Gal(b1-4)GlcNAc(b1-2)[Gal(b1-4)GlcNAc(b1-6)]Man(a1-6)]Man(b1-4)GlcNAc(b1-4)GlcNAc
Procedure, shortened: as §1

[4] = target: Gal(b1-4)GlcNAc(b1-2)[Gal(b1-4)GlcNAc(b1-4)]Man(a1-3)[GlcNAc(b1-4)][Gal(b1-4)GlcNAc(b1-2)Man(a1-6)]Man(b1-4)GlcNAc(b1-4)GlcNAc
Procedure, shortened: as §1

[5] = target: Gal(b1-4)GlcNAc(b1-2)[Gal(b1-4)GlcNAc(b1-4)]Man(a1-3)[GlcNAc(b1-4)][Gal(b1-4)GlcNAc(b1-2)[Gal(b1-4)GlcNAc(b1-6)]Man(a1-6)]Man(b1-4)GlcNAc(b1-4)GlcNAc
Procedure, shortened: as §1

[6] = target: Gal(b1-4)GlcNAc(b1-2)[Gal(b1-4)GlcNAc(b1-6)]Man(a1-6)[Gal(b1-4)GlcNAc(b1-2)Man(a1-3)]Man(b1-4)GlcNAc(b1-4)GlcNAc
Procedure, shortened: as §1

[7] = target: Gal(b1-4)GlcNAc(b1-2)[Gal(b1-4)GlcNAc(b1-6)]Man(a1-6)[Gal(b1-4)GlcNAc(b1-2)Man(a1-3)]Man(b1-4)GlcNAc(b1-4)[Fuc(a1-6)]GlcNAc
Procedure, shortened: as §1

[8] = target: Gal(b1-4)GlcNAc(b1-2)[Gal(b1-4)GlcNAc(b1-6)]Man(a1-6)[GlcNAc(b1-4)][Gal(b1-4)GlcNAc(b1-2)Man(a1-3)]Man(b1-4)GlcNAc(b1-4)GlcNAc
Procedure, shortened: as §1

[9] = target: Gal(b1-4)GlcNAc(b1-2)[Gal(b1-4)GlcNAc(b1-6)]Man(a1-6)[GlcNAc(b1-4)][Gal(b1-4)GlcNAc(b1-2)[Gal(b1-4)GlcNAc(b1-4)]Man(a1-3)]Man(b1-4)GlcNAc(b1-4)[Fuc(a1-6)]GlcNAc
Procedure, shortened: as §1

[10] = target: Gal(b1-4)GlcNAc(b1-3)Gal(b1-3)GalNAc
Procedure, shortened: as §1

[11] = target: Gal(b1-4)GlcNAc(b1-3)Gal(b1-3)GlcNAc
Procedure, shortened: as §1

[12] = target: Gal(b1-4)GlcNAc(b1-3)Gal(b1-4)Glc
Procedure, shortened: as §1

[13] = target: Gal(b1-4)GlcNAc(b1-3)Gal(b1-4)GlcNAc
Procedure, shortened: as §1

[14] = target: Gal(b1-4)GlcNAc(b1-3)Gal(b1-4)GlcNAc(b1-2)Man(a1-3)[Gal(b1-4)GlcNAc(b1-3)Gal(b1-4)GlcNAc(b1-2)Man(a1-6)]Man(b1-4)GlcNAc(b1-4)GlcNAc
Procedure, shortened: as §1

[15] = target: Gal(b1-4)GlcNAc(b1-3)Gal(b1-4)GlcNAc(b1-2)Man(a1-3)[Gal(b1-4)GlcNAc(b1-3)Gal(b1-4)GlcNAc(b1-2)Man(a1-6)]Man(b1-4)GlcNAc(b1-4)[Fuc(a1-6)]GlcNAc
Procedure, shortened: as §1

[16] = target: Gal(b1-4)GlcNAc(b1-3)Gal(b1-4)GlcNAc(b1-2)[Gal(b1-4)GlcNAc(b1-3)Gal(b1-4)GlcNAc(b1-6)]Man(a1-6)[Gal(b1-4)GlcNAc(b1-3)Gal(b1-4)GlcNAc(b1-2)Man(a1-3)]Man(b1-4)GlcNAc(b1-4)GlcNAc
Procedure, shortened: as §1

[17] = target: Gal(b1-4)GlcNAc(b1-3)Gal(b1-4)GlcNAc(b1-2)[Gal(b1-4)GlcNAc(b1-3)Gal(b1-4)GlcNAc(b1-6)]Man(a1-6)[Gal(b1-4)GlcNAc(b1-3)Gal(b1-4)GlcNAc(b1-2)Man(a1-3)]Man(b1-4)GlcNAc(b1-4)[Fuc(a1-6)]GlcNAc
Procedure, shortened: as §1

[18] = target: Gal(b1-4)GlcNAc(b1-3)Gal(b1-4)GlcNAc(b1-3)Gal(b1-4)GlcNAc
Procedure, shortened: as §1

[19] = target: Gal(b1-4)GlcNAc(b1-3)Gal(b1-4)GlcNAc(b1-3)Gal(b1-4)GlcNAc(b1-2)Man(a1-3)[Gal(b1-4)GlcNAc(b1-3)Gal(b1-4)GlcNAc(b1-3)Gal(b1-4)GlcNAc(b1-2)Man(a1-6)]Man(b1-4)GlcNAc(b1-4)GlcNAc
Procedure, shortened: as §1

[20] = target: Gal(b1-4)GlcNAc(b1-3)Gal(b1-4)GlcNAc(b1-3)Gal(b1-4)GlcNAc(b1-2)Man(a1-3)[Gal(b1-4)GlcNAc(b1-3)Gal(b1-4)GlcNAc(b1-3)Gal(b1-4)GlcNAc(b1-2)Man(a1-6)]Man(b1-4)GlcNAc(b1-4)[Fuc(a1-6)]GlcNAc
Procedure, shortened: as §1

[21] = target: Gal(b1-4)GlcNAc(b1-3)Gal(b1-4)GlcNAc(b1-3)Gal(b1-4)GlcNAc(b1-2)[Gal(b1-4)GlcNAc(b1-3)Gal(b1-4)GlcNAc(b1-3)Gal(b1-4)GlcNAc(b1-6)]Man(a1-6)[Gal(b1-4)GlcNAc(b1-3)Gal(b1-4)GlcNAc(b1-3)Gal(b1-4)GlcNAc(b1-2)Man(a1-3)]Man(b1-4)GlcNAc(b1-4)[Fuc(a1-6)]GlcNAc
Procedure, shortened: as §1

[22] = target: Gal(b1-4)GlcNAc(b1-3)Gal(b1-4)GlcNAc(b1-3)Gal(b1-4)GlcNAc(b1-3)Gal(b1-4)GlcNAc(b1-2)Man(a1-3)[Gal(b1-4)GlcNAc(b1-3)Gal(b1-4)GlcNAc(b1-3)Gal(b1-4)GlcNAc(b1-3)Gal(b1-4)GlcNAc(b1-2)Man(a1-6)]Man(b1-4)GlcNAc(b1-4)GlcNAc
Procedure, shortened: as §1

B1: Clone646PsrP (Streptococcus pneumoniae) (protein)
chain: MDHHHHHHHHASENLYFQGAPAINASLNIAKSETKVYTGEGVDSVYRVPIYYKLKVTNDGSKLTFTYTVTYVNPKTNDLGNISSMRPGYSIYNSGTSTQTMLTLGSDLGKPSGVKNYITDKNGRQVLSYNTSTMTTQGSGYTWGNGAQMNGFFAKKGYGLTSSWTVPITGTDTSFTFTPYAARTDRIGINYFNGGGKVVESSTTSQSLSQSKSLSVSAS
glycan array binding signal (z-score) [1]: -0.948 | glycan array binding signal (z-score) [2]: -0.869 | glycan array binding signal (z-score) [3]: -0.986 | glycan array binding signal (z-score) [4]: -0.761 | glycan array binding signal (z-score) [5]: -0.776 | glycan array binding signal (z-score) [6]: -0.464 | glycan array binding signal (z-score) [7]: -0.52 | glycan array binding signal (z-score) [8]: -0.887 | glycan array binding signal (z-score) [9]: -0.183 | glycan array binding signal (z-score) [10]: 0.058 | glycan array binding signal (z-score) [11]: -0.913 | glycan array binding signal (z-score) [12]: -0.123 | glycan array binding signal (z-score) [13]: -0.073 | glycan array binding signal (z-score) [14]: 0.169 | glycan array binding signal (z-score) [15]: -0.383 | glycan array binding signal (z-score) [16]: 2.04 | glycan array binding signal (z-score) [17]: -0.263 | glycan array binding signal (z-score) [18]: -0.913 | glycan array binding signal (z-score) [19]: 0.044 | glycan array binding signal (z-score) [20]: -0.694 | glycan array binding signal (z-score) [21]: -0.442 | glycan array binding signal (z-score) [22]: -0.444
